The source of these data is publication PMC11671014 (PLOS Pathogens, 2024).

Several values for one entry are separate records, joined by “and”; a condition that tells them apart may be missing. Identical values can stand only once. The amount applied is not stated for every result.

For this data set, the system named is Dd2-B2 parasites. The experiment in a line: Minimum inoculum of resistance (MIR) selection. As to conditions: for Minimum Inoculum for Resistance (MIR): Dd2-B2, ML901 at 3 x IC50, ML471 and DSM265 at 10 x IC50. Type of data set: cell-based, Plasmodium falciparum. As for the experimental part:
MIR studies were conducted for ML901 and ML471 using a modified “Gate keeper assay” [34]. […] For ML901, the parasites (starting parasite inoculums of 1x10^7 or 1x10^8 in triplicate) were subjected to pressure at 3 x IC50, with recrudescence on days 12–14. […] The different pressure regimens reflect the standard protocols in the Fidock lab used at the times of analysis. Wells were monitored daily by smear during the first seven days to ensure parasite clearance, during which media was changed daily. Thereafter, cultures were screened three times weekly by flow cytometry and smearing, and the selection maintained a consistent drug pressure over 60 days. […] Whole-genome sequencing analysis identified CNVs in chromosome 8 segments, always containing the PfTyrRS locus, consistent with our earlier evidence of this as the target of ML901 [16]. Single nucleotide polymorphism (SNP) filtering was lowered to 0.5 allelic balance (AB) but yielded no point mutations in the core genome.

Take `CC(C)c1nn([C@@H]2O[C@H](COS(N)(=O)=O)[C@@H](O)[C@H]2O)c2ncnc(N)c12` [ML471, ((2R,3S,4R,5R)-5-(4-amino-3-isopropyl-1H-pyrazolo[3,4-d]pyrimidin-1-yl)-3,4-dihydroxytetrahydrofuran-2-yl)methyl sulfamate]: the “Minimum Inoculum for Resistance (MIR)” value is on record as 7.1 x10^5. Further, the Day of recrudescence (selection with 2x10^5 parasites per well, 10 x IC50) is recorded as 18 (29/96 wells) day.

With `Nc1ncnc2c1c(OC(F)F)nn2[C@@H]1O[C@H](COS(N)(=O)=O)[C@@H](O)[C@H]1O` [ML901], the “Minimum Inoculum for Resistance (MIR)” value is < 10^7 and 10^7. Also, where the note is “selection with 10^7 parasites, 3 x IC50 (flasks in brackets)”, the Day of recrudescence is 12 (1/3), 14 (2/3) day. Moreover, for the setting “selection with 10^8 parasites, 3 x IC50 (flasks in brackets)”, the Day of recrudescence is on record as 14 (3/3) day.
